Assay results published in PMC4772117.

Amino acid sequences for entries named in this document (tags omitted). A change or cut given only in a name is not applied to a line headed by its entry.
UniProt O14734: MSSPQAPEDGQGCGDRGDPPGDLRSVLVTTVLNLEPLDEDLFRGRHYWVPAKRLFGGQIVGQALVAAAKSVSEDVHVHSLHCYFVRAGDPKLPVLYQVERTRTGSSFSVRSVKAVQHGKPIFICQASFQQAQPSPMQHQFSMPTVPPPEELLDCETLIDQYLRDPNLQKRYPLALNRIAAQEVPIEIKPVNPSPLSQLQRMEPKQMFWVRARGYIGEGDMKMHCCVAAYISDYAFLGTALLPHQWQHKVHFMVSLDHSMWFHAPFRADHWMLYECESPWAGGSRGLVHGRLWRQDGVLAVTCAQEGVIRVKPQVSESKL

Target: HIV-1-LAI Nef (HIV-1 (strain LAI)) (UniProt P03406)
Assay: co-IP; CHO cells cotransfected with HA-tagged Nef and ACOT8 constructs, 48 h; non-denaturing lysis buffer (10 mM Tris-HCl pH 7.5, 5 mM EDTA, 150 mM NaCl, 1% Triton X-100); anti-HA antibody overnight at 4 °C, protein G Dynabeads; blot with anti-ACOT8 antibody

| Substance | binding |
| --- | --- |
| ACOT8 pΔPAK mutant (point deletion of Lys52) (from UniProt O14734) (enzyme) | binds |
| ACOT8 pΔPK mutant (Lys91 to Ser91) (from UniProt O14734) (enzyme) | no binding |

Results are given in words; binding and its absence hold for the method and conditions named. Binding seen in cells or lysates may run through a third protein. Binding calls can cover weak binding; strength is not graded here.
